# Experimental data as given in patent US20190367445A1, “4-AMINO SUBSTITUTED PHENYLAMIDINE DERIVATIVES AND THEIR USE TO PROTECT CROPS BY FIGHTING UNDESIRED PHYTOPATHOGENIC MICOORGANISMS” (PI INDUSTRIES LTD., priority 2016, published 2019).
# Some of these results come from one statement about several compounds together. At least one structure is not confirmed: it was looked up by name or label, or the drawing left a doubt. Some compounds share one range, which may span the group rather than tell each member.
# System: Fusarium culmorum Foot rot of cereals
# Test: In vitro test on Potato Dextrose Agar, radial growth: Fusarium culmorum
# Type: cell-based
# Settings: 300 ppm, radial growth after seven days, 25° C., 60% relative humidity
row,Structure (SMILES),control compared to untreated check
1,CCN(C)C=Nc1cc(C)c(Nc2ccccc2)cc1C [Compound 1],70-100%
2,CCN(C)C=Nc1cc(C)c(N(C)c2ccc(Cl)cc2)cc1C [Compound 7],70-100%
3,CCN(C)C=Nc1cc(C)c(N(C)c2cccc(Cl)c2)cc1C [Compound 8],70-100%
4,CCN(C)C=Nc1cc(C)c(N(C)c2ccc(C)cc2)cc1C [Compound 26],70-100%
5,CCN(C)C=Nc1cc(C)c(N(C)c2ccc(OC)cc2)cc1C [Compound 27],70-100%
6,CCN(C)C=Nc1cc(C)c(Nc2cccc(C)c2)cc1C [Compound 29],70-100%
7,CCN(C)C=Nc1cc(C)c(N(C)c2cccc(F)c2)cc1C [Compound 38],70-100%
8,CCN(C)C=Nc1cc(C)c(N(C)c2ccc(F)cc2)cc1C [Compound 39],70-100%
9,CCN(C)C=Nc1cc(C)c(Nc2ccccc2Cl)cc1C [Compound 40],70-100%
10,CCN(C)C=Nc1cc(C)c(Nc2ccccc2OC)cc1C [Compound 45],70-100%
11,"CCN(C)C=Nc1cc(C)c(Nc2cccc(Cl)c2)cc1Cl [Compound 52, N′-(2-Chloro-4-((3-chlorophenyl)amino)-5-methylphenyl)-N-ethyl-N-methylformimidamide]",70-100%
12,CCN(C)C=Nc1cc(C)c(Nc2cccc(Cl)c2)cc1C [Compound 55],70-100%
13,CCN(C)C=Nc1cc(C)c(Nc2ccccc2C(F)(F)F)cc1C [Compound 57],70-100%
14,CCN(C)C=Nc1cc(C)c(Nc2ccc(C(F)(F)F)cc2)cc1C [Compound 59],70-100%
15,CCN(C)C=Nc1cc(C)c(Nc2cccc(OC(F)(F)F)c2)cc1C [Compound 60],70-100%
16,CCN(C)C=Nc1cc(C)c(N(C)c2ccc(C(F)(F)F)cc2)cc1C [Compound 61],70-100%
17,CCN(C)C=Nc1cc(C)c(N(C)c2cccc(OC(F)(F)F)c2)cc1C [Compound 62],70-100%
18,CCN(C)C=Nc1cc(C)c(N(C)c2ccccc2Br)cc1C [Compound 64],70-100%
19,CCN(C)C=Nc1cc(C)c(N(C)c2cccc(SC)c2)cc1C [Compound 66],70-100%
20,CCN(C)C=Nc1cc(C)c(Nc2ccc(Cl)cc2)cc1Cl [Compound 71],70-100%

row,Structure (SMILES),control compared to untreated check
1,CCN(C)C=Nc1cc(C)c(Nc2ccccc2Br)cc1Cl [Compound 75],70-100%
2,CCN(C)C=Nc1cc(C)c(N(C)c2ccccc2Br)cc1Cl [Compound 76],70-100%
3,CCN(C)C=Nc1cc(C)c(N(C)c2ccccc2C)cc1C [Compound 77],70-100%
4,CCN(C)C=Nc1cc(C)c(Nc2ccccc2OC)cc1Cl [Compound 78],70-100%
5,CCN(C)C=Nc1cc(C)c(Nc2ccccc2C(F)(F)F)cc1Cl [Compound 79],70-100%
6,CCN(C)C=Nc1cc(C)c(Nc2ccc(C(F)(F)F)cc2)cc1Cl [Compound 81],70-100%
7,CCN(C)C=Nc1cc(C)c(Nc2ccc(F)cc2)cc1Cl [Compound 83],70-100%
8,CCN(C)C=Nc1cc(C)c(N(C)c2cccc(F)c2)cc1Cl [Compound 84],70-100%
9,CCN(C)C=Nc1cc(C)c(N(C)c2ccc(F)cc2)cc1Cl [Compound 85],70-100%
10,CCN(C)C=Nc1cc(C)c(Nc2cccc(C(F)(F)F)c2)cc1C [Compound 86],70-100%
11,CCN(C)C=Nc1cc(C)c(N(C)c2cccc(C(F)(F)F)c2)cc1C [Compound 89],70-100%
12,CCN(C)C=Nc1cc(C)c(Nc2ccc(OC(F)(F)F)cc2)cc1C [Compound 102],70-100%
13,CCN(C)C=Nc1cc(C)c(N(C)c2ccccc2OC(F)(F)F)cc1C [Compound 104],70-100%
14,CCN(C)C=Nc1cc(C)c(N(C)c2ccc(OC(F)(F)F)cc2)cc1C [Compound 106],70-100%
15,CCN(C)C=Nc1cc(C)c(Nc2ccccc2SC(F)(F)F)cc1C [Compound 116],70-100%
16,CCN(C)C=Nc1cc(C)c(Nc2ccccc2SC(F)(F)F)cc1Cl [Compound 117],70-100%
17,CCN(C)C=Nc1cc(C)c(Nc2ccc(SC(F)(F)F)cc2)cc1C [Compound 119],70-100%
18,CCN(C)C=Nc1cc(C)c(N(C)c2ccccc2SC(F)(F)F)cc1C [Compound 121],70-100%
19,CCN(C)C=Nc1cc(C)c(N(C)c2ccc(SC(F)(F)F)cc2)cc1C [Compound 123],70-100%
20,CCN(C)C=Nc1cc(C)c(N(C)c2cccc(SC(F)F)c2)cc1C [Compound 125],70-100%

row,Structure (SMILES),control compared to untreated check
1,CCN(C)C=Nc1cc(C)c(Nc2cccc(SC(F)(F)F)c2)cc1C [Compound 126],70-100%
2,CCN(C)C=Nc1cc(C)c(N(C)c2cccc(OC(F)F)c2)cc1C [Compound 145],70-100%
3,CCN(C)C=Nc1cc(C)c(N(C)c2cc(C(F)(F)F)cc(C(F)(F)F)c2)cc1C [Compound 153],70-100%
4,CCN(C)C=Nc1cc(C)c(Nc2cc(C)ccc2C(F)(F)F)cc1C [Compound 155],70-100%
5,CCN(C)C=Nc1cc(C)c(N(C)c2cc(F)ccc2F)cc1C [Compound 156],70-100%
6,CCN(C)C=Nc1cc(C)c(Nc2ccc(Cl)cc2C(F)(F)F)cc1C [Compound 159],70-100%
7,CCN(C)C=Nc1cc(C)c(Nc2ccc(Cl)cc2C(F)(F)F)cc1Cl [Compound 160],70-100%
8,CCN(C)C=Nc1cc(C)c(N(C)c2ccc(Cl)cc2C(F)(F)F)cc1C [Compound 161],70-100%
9,CCN(C)C=Nc1cc(C)c(Nc2ccc(C(F)(F)F)cc2Cl)cc1C [Compound 166],70-100%
10,CCN(C)C=Nc1cc(C)c(N(C)c2ccc(C(F)(F)F)cc2Cl)cc1C [Compound 168],70-100%
11,CCN(C)C=Nc1cc(C)c(Nc2ccccc2SC)cc1C [Compound 170],70-100%
12,CCN(C)C=Nc1cc(F)c(N(C)c2ccc(F)c(OC(F)(F)C(F)F)c2)cc1C [Compound 181],70-100%
13,CCN(C)C=Nc1cc(C)c(N(C)c2ccc(F)c(OC(F)F)c2)cc1C [Compound 197],70-100%
14,CCN(C)C=Nc1cc(C)c(Nc2cccc(OC(F)(F)C(F)F)c2)cc1C [Compound 205],70-100%
15,CCN(C)C=Nc1cc(C)c(N(C)c2cccc(OC(F)(F)C(F)F)c2)cc1C [Compound 206],70-100%
16,CCN(C)C=Nc1cc(C)c(N(C)c2cc(C)ccc2F)cc1C [Compound 209],70-100%
17,CCN(C)C=Nc1cc(C)c(N(C)c2cc(C)ccc2F)cc1Cl [Compound 210],70-100%
18,CCN(C)C=Nc1cc(F)c(Nc2ccc(C(C)(C)C)cc2)cc1C [Compound 213],70-100%
19,CCN(C)C=Nc1cc(C)c(Nc2ccccc2SC(F)F)cc1C [Compound 220],70-100%
20,CCN(C)C=Nc1cc(C)c(N(C)c2ccccc2SC(F)F)cc1C [Compound 221],70-100%

# System: Fusarium culmorum
# Test: Greenhouse preventive test: Fusarium culmorum test in wheat
# Type: in vivo
# Settings: 500 ppm; preventive spray on wheat, inoculated one day after treatment; disease severity rating
row,Structure (SMILES),Efficacy (% control) compared to untreated check
1,CCN(C)C=Nc1cc(C)c(Nc2ccccc2)cc1C [Compound 1],70-100%
2,CCN(C)C=Nc1cc(C)c(N(C)c2ccccc2)cc1C [Compound 2],70-100%
3,CCN(C)C=Nc1cc(C)c(Nc2ccccc2)cc1Cl [Compound 3],70-100%
4,CCN(C)C=Nc1cc(C)c(N(C)c2ccccc2)cc1Cl [Compound 4],70-100%
5,CCN(C)C=Nc1cc(C)c(N(c2ccccc2)S(C)(=O)=O)cc1C [Compound 5],70-100%
6,CCN(C)C=Nc1cc(C)c(N(C)c2ccc(C(F)(C(F)(F)F)C(F)(F)F)cc2C)cc1C [Compound 6],70-100%
7,CCN(C)C=Nc1cc(C)c(N(C)c2ccc(Cl)cc2)cc1C [Compound 7],70-100%
8,CCN(C)C=Nc1cc(C)c(N(C)c2cccc(Cl)c2)cc1C [Compound 8],70-100%
9,CCN(C)C=Nc1cc(C)c(N(C)c2ccc(Cl)c(Cl)c2)cc1C [Compound 9],70-100%
10,CCN(C)C=Nc1cc(C)c(N(C)c2cc(F)c(F)c(F)c2)cc1Cl [Compound 10],70-100%
11,CCN(C)C=Nc1cc(C)c(N(C)c2cccc(C)c2)cc1Cl [Compound 11],70-100%
12,CCN(C)C=Nc1cc(C)c(N(C)c2ccc(Cl)c(Cl)c2)cc1Cl [Compound 12],70-100%
13,CCN(C)C=Nc1cc(C)c(N(C)c2cccc(OC)c2)cc1Cl [Compound 13],70-100%
14,CCN(C)C=Nc1cc(C)c(N(C)c2ccc(OC)cc2)cc1Cl [Compound 20],70-100%
15,CCN(C)C=Nc1cc(C)c(N(C)c2ccc(OC)c(C)c2)cc1Cl [Compound 21],70-100%
16,CCN(C)C=Nc1cc(C)c(N(C)c2ccc(OC)cc2)cc1C [Compound 27],70-100%
17,CCN(C)C=Nc1cc(C)c(Nc2cccc(OC)c2)cc1C [Compound 28],70-100%
18,CCN(C)C=Nc1cc(C)c(N(C)c2ccccc2F)cc1C [Compound 36],70-100%
19,CCN(C)C=Nc1cc(C)c(N(C)c2c(F)cccc2Cl)cc1Cl [Compound 112],70-100%
20,CCN(C)C=Nc1cc(C)c(Nc2cccc(SC(F)(F)F)c2)cc1Cl [Compound 139],70-100%
